Experimental data from PubChem BioAssay AID504467 (National Center for Advancing Translational Sciences (NCATS), 2011).
The whole screen tested about 330,000 compounds, of which about 7,700 (2.3%) were called active. The inconclusive results got no clear call from the source; some entries with a clear call stand among them for comparison. The call rests on the fitted dose curve; in most records, active means well fitted inhibition curve with a large enough effect; inconclusive means small, poorly fitted or top-dose-only effect, or effect the other way; inactive means flat fitted curve, though single readings scatter. Potencies beside an inconclusive call are fits to weak or partial responses and may not hold up.

Assay: qHTS screen for small molecules that inhibit ELG1-dependent DNA repair in human embryonic kidney (HEK293T) cells expressing luciferase-tagged ELG1; further: nearly all actives have a fitted effect of over 55% in size
Conditions: HEK293T ELG1-luciferase reporter, luminescence, 16 h, DNA damage induced by 5-fluorouridine; activity change, negative = inhibition: at 46.1 µM (top of the series)
Procedure, shortened: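 HEK293T cells expressing luciferase-tagged ELG1 (2,000/well) received 5-Fluorouridine plus compound or DMSO for 16 hr at 37 °C. Luciferase was read by ONE-Glo luminescence after 30 min at room temperature.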
On the % scale 0 is the no-effect control and ±100 the full control effect; potency means the concentration at half of the fitted maximal effect.

Row | SMILES | Potency | activity change, negative = inhibition
1 | COc1cc(/C=C2\NC(=S)N(C)C2=O)ccc1OCc1cccc(F)c1 | inconclusive: 0.0065 µM [inhibitor, full curve, poor fit] | 
2 | Cc1cn(S(=O)(=O)c2ccccc2[N+](=O)[O-])cn1 |  | inactive: -3.8%
3 | CCN(CC)c1ccc(NC(=O)CN2CCN(CC(=O)Nc3ccccc3F)CC2)cc1 | inconclusive: 10 µM [inhibitor, partial curve] | 
4 | Cc1ccccc1NS(=O)(=O)c1ccc(OCC(=O)NCC2CCCO2)cc1 (stereo unspecified) |  | inactive: 10.2%
5 | O=C(CN1CCN(C(=O)c2cccc(-n3cnnn3)c2)CC1)Nc1ccccc1Cl | inconclusive: 35.5 µM [inhibitor, single point] | 
6 | O=C(c1ccccc1Cl)N1CCc2ccccc2C1 | inconclusive: 29.1 µM [activator, single point] | 
7 | COC(=O)c1cnc(SCc2ccc(C)cc2)n1C | inconclusive: 20.6 µM [activator, single point] | 
8 | CC1=C(C(=O)OCc2ccc3c(c2)OCO3)C(c2ccccc2)NC(=O)N1 (stereo unspecified) | active: 2.06 µM | 
9 | CCOC(=O)c1ccc(S(=O)(=O)Nc2cc(S(=O)(=O)N3CCOCC3)ccc2O)cc1 |  | inactive: 3.45%
10 | C=CCNC(=S)NNC(=O)c1ccc(OCC(C)C)cc1 |  | inactive: -4.6%
11 | O=C(CN1CCN(S(=O)(=O)N2CCCCC2)CC1)Nc1cc(Cl)cc(Cl)c1 | inconclusive: 18.3 µM [inhibitor, single point] | 
12 | COc1ccc(CCN2CN(S(=O)(=O)c3ccc(C)cc3)c3nc4ccccc4nc32)cc1OC |  | inactive: -2.86%
13 | COc1ccc(NS(=O)(=O)c2ccc(NC(=S)NC(=O)CC(C)C)cc2)cc1 | inconclusive: 25.9 µM [inhibitor, single point] | 
14 | CCOC(=O)C1=NN(c2ccc(C)cc2)CC1C(=O)OC (stereo unspecified) |  | inactive: 22.7%
15 | Cn1cccc1CC(=O)N/N=C/C=C/c1ccccc1 | inconclusive: 14.6 µM [activator, partial curve] | 
16 | O=C(COC(=O)Cc1ccccc1F)Nc1ccc2c(c1)OCO2 |  | inactive: 3.07%
17 | CCOc1ccc(NC(=O)CCC(=O)NNC(=O)COc2ccc(C)cc2Br)cc1 | inconclusive: 18.3 µM [activator, partial curve] | 
18 | O=C(Nc1ccc(SC(F)F)cc1)C1=COCCO1 | inconclusive: 5.17 µM [activator, partial curve] | 
19 | Cn1c(N2CCOCC2)c(/C=N/OC(=O)c2cccnc2Cl)c2ccccc21 | inconclusive: 5.17 µM [inhibitor, single point] | 
20 | Cc1c(Cl)c([N+](=O)[O-])nn1CCCC(=O)Nc1cc(Oc2ccccc2)cc([N+](=O)[O-])c1 |  | inactive: 2.64%
21 | CCCCN(C(=S)SC)C1CCS(=O)(=O)C1 (stereo unspecified) |  | inactive: 1.53%
22 | Cc1cc(C(=O)N2CCN(c3ccc(F)cc3)CC2)on1 | inconclusive: 16.4 µM [activator, partial curve, poor fit] | 
23 | CCC(Sc1nc2ccccc2c2nc3ccccc3n12)C(=O)NCc1ccco1 (stereo unspecified) | inconclusive: 2.31 µM [inhibitor, partial curve, poor fit] | 
24 | O=C(O)c1ccc(N/N=C/c2cc3c(cc2[N+](=O)[O-])OCO3)cc1 | inconclusive: 29.1 µM [activator, single point] | 

Row | SMILES | Potency | activity change, negative = inhibition
25 | CCCn1nc(C(=O)Nc2ccc(S(=O)(=O)Nc3nccs3)cc2)c2ccccc2c1=O |  | inactive: -15.2%
26 | CCOc1ccc(S(=O)(=O)N(C(=O)c2ccco2)c2cc3sc(=O)oc3c3ccccc23)cc1 | inconclusive: 25.9 µM [inhibitor, partial curve] | 
27 | C/C(CC(=O)Nc1ccc2ccccc2c1)=N\NC(=O)c1ccc(O)c(O)c1 | inconclusive: 23.1 µM [activator, single point] | 
28 | Cc1ccc(C)n1-c1cccc(S(=O)(=O)N2CCOCC2)c1 | inconclusive: 9.2 µM [activator, partial curve] | 
29 | CCN(CC)Cc1c(C(=O)N/N=C/c2cccc(OCc3cccc(Cl)c3)c2)nnn1-c1nonc1N |  | inactive: 3.94%
30 | CN1CCN(S(=O)(=O)c2ccc(Oc3ccc(F)c(Cl)c3)nc2)CC1 |  | inactive: 0.25%
31 | CCn1c(SC2CCOC2=O)nnc1-c1ccc(Cl)cc1 (stereo unspecified) |  | inactive: 11%
32 | CCN(Cc1ccccc1)C(=O)c1[nH]c2ccc(OC)cc2c1C |  | inactive: -0.82%
33 | O=C(Nc1ccc(S(=O)(=O)N2CCOCC2)cc1)c1cccs1 |  | inactive: -29.4%
34 | COc1ccc(CCN=c2c([N+](=O)[O-])nn(-c3cccc(C)c3)n2O)cc1OC | inconclusive: 23.1 µM [inhibitor, single point] | 
35 | Cc1c(C(=O)N(C)c2cccc(Cl)c2)cnn1-c1ccccc1 | inconclusive: 29.1 µM [activator, single point] | 
36 | CSc1nc(N)n2nc(-c3ccccc3)cc2n1 | inconclusive: 9.2 µM [activator, partial curve] | 
37 | Cc1cc(C(=O)OCC(=O)NC2CCC(C)CC2)c(C)o1 (stereo unspecified) | inconclusive: 18.3 µM [activator, partial curve, poor fit] | 
38 | CCN(CC(=O)NCc1ccccc1Cl)CC(=O)Nc1c(F)cccc1F | inconclusive: 16.4 µM [inhibitor, single point] | 
39 | COc1ccccc1CNC(=O)C(=O)NCC(c1ccco1)N1CCOCC1 (stereo unspecified) |  | inactive: 8.69%
40 | CCOc1ccccc1Oc1coc2cc(OCC(=O)O)ccc2c1=O |  | inactive: 0.98%
41 | CCCOc1ccc(C2=NNC(=O)CC2)cc1 | inconclusive: 20.6 µM [activator, single point] | 
42 | CC(=O)C(/C=N/c1cc(-c2ccc(C)cc2)nn1-c1ccccc1)=C(\C)O | inconclusive: 4.61 µM [activator, full curve] | 
43 | Cc1cc(C)n2nc(SCC(=O)N(CCC#N)c3ccc(F)cc3)nc2n1 |  | inactive: 8.84%
44 | Cc1ccc(C(=O)OCc2ccc3c(c2)OCO3)cc1S(=O)(=O)N1CCCCC1 | inconclusive: 29.1 µM [inhibitor, single point] | 
45 | Cc1nn(-c2ccccc2)c(C)c1CCC(=O)O | inconclusive: 12.6 µM [activator, partial curve, poor fit] | 
46 | O=C(Cn1ccsc1=NC(=O)C(F)(F)F)c1ccccc1 | inconclusive: 20.6 µM [activator, partial curve] | 
47 | COC(=O)c1c(NC(=O)CSc2nnnn2-c2ccccc2)sc2c1CCCC2 | inconclusive: 29.1 µM [inhibitor, single point] | 
48 | O=C(NCC(=O)N1CCN(c2ccccc2O)CC1)c1cccs1 | inconclusive: 18.3 µM [activator, partial curve] | 

Numbers 20 through 38, quoted:
Row | SMILES | Potency | activity change, negative = inhibition
20 | Cc1c(Cl)c([N+](=O)[O-])nn1CCCC(=O)Nc1cc(Oc2ccccc2)cc([N+](=O)[O-])c1 |  | inactive: 2.64%
21 | CCCCN(C(=S)SC)C1CCS(=O)(=O)C1 (stereo unspecified) |  | inactive: 1.53%
22 | Cc1cc(C(=O)N2CCN(c3ccc(F)cc3)CC2)on1 | inconclusive: 16.4 µM [activator, partial curve, poor fit] | 
23 | CCC(Sc1nc2ccccc2c2nc3ccccc3n12)C(=O)NCc1ccco1 (stereo unspecified) | inconclusive: 2.31 µM [inhibitor, partial curve, poor fit] | 
24 | O=C(O)c1ccc(N/N=C/c2cc3c(cc2[N+](=O)[O-])OCO3)cc1 | inconclusive: 29.1 µM [activator, single point] | 
25 | CCCn1nc(C(=O)Nc2ccc(S(=O)(=O)Nc3nccs3)cc2)c2ccccc2c1=O |  | inactive: -15.2%
26 | CCOc1ccc(S(=O)(=O)N(C(=O)c2ccco2)c2cc3sc(=O)oc3c3ccccc23)cc1 | inconclusive: 25.9 µM [inhibitor, partial curve] | 
27 | C/C(CC(=O)Nc1ccc2ccccc2c1)=N\NC(=O)c1ccc(O)c(O)c1 | inconclusive: 23.1 µM [activator, single point] | 
28 | Cc1ccc(C)n1-c1cccc(S(=O)(=O)N2CCOCC2)c1 | inconclusive: 9.2 µM [activator, partial curve] | 
29 | CCN(CC)Cc1c(C(=O)N/N=C/c2cccc(OCc3cccc(Cl)c3)c2)nnn1-c1nonc1N |  | inactive: 3.94%
30 | CN1CCN(S(=O)(=O)c2ccc(Oc3ccc(F)c(Cl)c3)nc2)CC1 |  | inactive: 0.25%
31 | CCn1c(SC2CCOC2=O)nnc1-c1ccc(Cl)cc1 (stereo unspecified) |  | inactive: 11%
32 | CCN(Cc1ccccc1)C(=O)c1[nH]c2ccc(OC)cc2c1C |  | inactive: -0.82%
33 | O=C(Nc1ccc(S(=O)(=O)N2CCOCC2)cc1)c1cccs1 |  | inactive: -29.4%
34 | COc1ccc(CCN=c2c([N+](=O)[O-])nn(-c3cccc(C)c3)n2O)cc1OC | inconclusive: 23.1 µM [inhibitor, single point] | 
35 | Cc1c(C(=O)N(C)c2cccc(Cl)c2)cnn1-c1ccccc1 | inconclusive: 29.1 µM [activator, single point] | 
36 | CSc1nc(N)n2nc(-c3ccccc3)cc2n1 | inconclusive: 9.2 µM [activator, partial curve] | 
37 | Cc1cc(C(=O)OCC(=O)NC2CCC(C)CC2)c(C)o1 (stereo unspecified) | inconclusive: 18.3 µM [activator, partial curve, poor fit] | 
38 | CCN(CC(=O)NCc1ccccc1Cl)CC(=O)Nc1c(F)cccc1F | inconclusive: 16.4 µM [inhibitor, single point] | 

(next part)

Row | SMILES | Potency | activity change, negative = inhibition
49 | COCC(C)NC(=O)c1cc2cccc([N+](=O)[O-])c2[nH]1 (stereo unspecified) |  | inactive: -15.8%
50 | CCOc1ccc(NC(=O)Cn2nnc(C(=O)NCc3cccs3)c2N)cc1 |  | inactive: 28.1%
51 | NNC(=O)c1cc2ccccc2cc1NS(=O)(=O)c1ccccc1 |  | inactive: -2.46%
52 | CC(C)N1CCc2c(sc(NC(=O)C3CCCCC3)c2C(N)=O)C1 | inconclusive: 23.1 µM [inhibitor, single point] | 
53 | CN(CC(=O)N1CCN(Cc2ccccc2)CC1)S(=O)(=O)c1cccc2nsnc12 | inconclusive: 18.3 µM [inhibitor, partial curve, poor fit] | 
54 | COc1cc2c(C#N)c(N3CCCCC3)nc(N)c2c(N)n1 | inconclusive: 8.2 µM [activator, partial curve, poor fit] | 
55 | Cc1cc(C)nc(SCc2ccc(C(=O)N/N=C3\CC(C)CC(C)(C)C3)cc2)n1 (stereo unspecified) | inconclusive: 0.651 µM [inhibitor, single point] | 
56 | CNC(=O)CCCCCNS(=O)(=O)c1ccc(C)cc1 | inconclusive: 23.1 µM [activator, single point] | 
57 | O=C(CSC1=NS(=O)(=O)c2ccccc2N1)c1ccccc1 | inconclusive: 11.6 µM [activator, partial curve, poor fit] | 
58 | COc1cccc(-c2cc(C(=O)Nc3c(C)nn(Cc4ccccc4)c3C)no2)c1 | active: 20.6 µM | 
59 | COc1cc(/C=N/N2CCN(c3ccccc3OC)CC2)ccc1OC(C)=O | inconclusive: 15.8 µM [activator, single point] | 
60 | Clc1nc2c(-c3ccccc3)nnn2c2ccccc12 | inconclusive: 29.1 µM [inhibitor, single point] | 
61 | O=C(O)c1ccc(-n2c(/C=C/c3ccccc3)nc3ccccc3c2=O)cc1 |  | inactive: 9.22%
62 | CCOC(=O)N1CCN(C(=O)CSCC(=O)Nc2nc(-c3ccc(C)cc3)cs2)CC1 | inconclusive: 16.4 µM [inhibitor, partial curve, poor fit] | 
63 | c1ccc(N=P(c2nc3ccccc3o2)(N2CCOCC2)N2CCOCC2)cc1 | inconclusive: 20.6 µM [activator, partial curve] | 
64 | COc1ccc(C(=O)O)cc1S(=O)(=O)Nc1cccc(C(F)(F)F)c1 |  | inactive: 2.64%
65 | O=C(CCC(=O)N1CCN(S(=O)(=O)c2ccc(Cl)cc2)CC1)Nc1cccc(Br)c1 | inconclusive: 14.6 µM [inhibitor, partial curve, poor fit] | 
66 | CN(C(=O)CCN1CCCO1)C1CCCN(Cc2ccccc2F)C1 (stereo unspecified) | inconclusive: 16.4 µM [activator, partial curve, poor fit] | 
67 | O=C(Nc1nccs1)c1ccccc1Br | inconclusive: 11.6 µM [activator, partial curve] | 
68 | CCn1c(N2CCN(CC(=O)c3ccc(OC)cc3)CC2)nc2ccccc21 |  | inactive: -6.96%
69 | CCC(=O)c1ccc(NC(C)=O)cc1O |  | inactive: 8.68%
70 | COc1ccc(C(=O)Nc2ccc(C3CC3(Cl)Cl)cc2)cc1 (stereo unspecified) | inconclusive: 9.2 µM [activator, partial curve] | 
71 | O=C(COc1ccc(Cl)cc1)NCc1nnc(SCC(=O)N2CCCc3ccccc32)o1 | inconclusive: 32.6 µM [inhibitor, partial curve, poor fit] | 
